Results from PubChem BioAssay AID1347076 (National Center for Advancing Translational Sciences (NCATS), 2019).
Out of some 400,000 compounds screened, about 13,000 (3.2%) were called active. Inconclusive means that the source gave no clear call. Such entries were picked first, then a sample of the others. The call rests on the fitted dose curve; in most records, active means well fitted cell-killing curve with a large enough effect; inconclusive means small, poorly fitted or top-dose-only effect, or effect the other way; inactive means flat fitted curve, though single readings scatter. A potency beside an inconclusive call is a rough fit, not a confirmed value.

assay: qHTS assay for MDR1-selective chemotherapeutics: Primary screen using the drug-selected MDR subline cells KB-V1; conditions: KB-V1 MDR cells viability, CellTiter-Glo, 72 h; activity change, negative = cytotoxicity: at 46.1 µM (top of the series); further: nearly all actives have a fitted effect of over 60% in size
How it was run: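 Cytotoxicity toward P-gp-expressing KB-V1 cells was determined as loss of CellTiter-Glo luminescence after 72 h at 37 degrees C. Compounds were tested in quantitative HTS format across a concentration range, with curves fitted to normalized data.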
On the % scale 0 is the no-effect control and ±100 the full control effect; potency means the concentration at half of the fitted maximal effect.

Structure (SMILES) | Potency | activity change, negative = cytotoxicity
CC(=O)c1cccc(NC(=O)C2CCCN(S(=O)(=O)c3cccc4cccnc34)C2)c1 (stereo unspecified) | inconclusive: 29.1 µM [cytotoxic, single point] | 
Cc1noc(C)c1COC(=O)c1cccnc1SCC(=O)Nc1ccc2c(c1)OCO2 | inconclusive: 23.1 µM [cytotoxic, single point] | 
O=C(O)c1sccc1SCc1ccc(Cl)cc1Cl | inconclusive: 3.66 µM [rising, full curve] | 
O=C(CCC(=O)N(CC(=O)NC1CCCCC1)c1ccc(F)cc1)Nc1ccccn1 | inconclusive: 14.6 µM [cytotoxic, single point] | 
CC(=O)N1CCCc2cc(S(=O)(=O)N3CCCC(C(=O)NC(C)C)C3)ccc21 (stereo unspecified) |  | inactive: -10.3%
Cc1ccc(N(Cc2cc3cc(C)ccc3[nH]c2=O)C(=O)c2cccs2)cc1 | inconclusive: 0.651 µM [cytotoxic, full curve, poor fit] | 
CSc1ncccc1C(=O)Nc1cccc(S(=O)(=O)N2CCCCC2)c1 |  | inactive: -11.1%
CC(C)C(OC(=O)c1cc2sccc2n1C)C(=O)NCC1CCCO1 (stereo unspecified) | inconclusive: 16.4 µM [cytotoxic, single point] | 
CCc1nnc(NC(=O)CSc2nc3cccnc3n2C2CCCCC2)s1 | inconclusive: 6.51 µM [cytotoxic, partial curve] | 
Cc1cc(-c2ccc(S(=O)(=O)Nc3ccc(Cl)cc3)cc2)on1 |  | inactive: -17.6%
Cc1[nH]c2ccc(-c3nnc(SCC(=O)c4ccccc4F)o3)cc2c1C | active: 20.6 µM | 
COc1ccc(OCC(=O)Nc2ccc(C)c(S(=O)(=O)N(C)C)c2)cc1 |  | inactive: -2.59%
COc1ccc(/C=C/C(=O)c2ccc[nH]2)cc1OC | inconclusive: 20.6 µM [cytotoxic, partial curve] | 
Cc1ccc(NC(=S)C2=C(O)c3ccccc3N(C)S2(=O)=O)cc1 |  | inactive: -0.94%
COc1ccc(-n2nc(C(=O)Nc3ccc(C(C)=O)cc3)nc2-c2ccccc2)cc1 |  | inactive: -12.9%
Cc1ccccc1CC1SC(N)=NC1=O (stereo unspecified) |  | inactive: -3.81%
Cc1ccc(NC(=O)c2cccc(S(=O)(=O)N(C)C3CCCCC3)c2)nc1 | inconclusive: 7.31 µM [cytotoxic, partial curve] | 
CC(/C=C/c1ccccc1)=N\Nc1nc(C)cc(C)n1 | inconclusive: 23.1 µM [cytotoxic, single point] | 
CCOC(=O)c1cc2c(ccn2C)n1CC(=O)N(Cc1ccccc1)c1ccc(F)cc1 | inconclusive: 29.1 µM [cytotoxic, single point] | 
Cc1nc(NCc2ccccc2)c2cc[nH]c2n1 |  | inactive: 11.6%
COc1ccc(Cl)cc1Nc1ncnc2sc(C)c(S(=O)(=O)N3CCC(C)CC3)c12 | inconclusive: 4.11 µM [cytotoxic, full curve, poor fit] | 
CC(=O)c1ccc(NC(=O)Nc2sc3nc4n(c(=O)c3c2C)CCC(C)CC4)cc1 (stereo unspecified) | inconclusive: 29.1 µM [rising, single point] | 
CCC(c1nnnn1-c1ccc2c(c1)OCCO2)N1CCN(c2ccc(F)cc2)CC1 (stereo unspecified) | active: 10.3 µM | 

Already shown: an excerpt of the list.
Structure (SMILES) | Potency | activity change, negative = cytotoxicity
CC(=O)c1cccc(NC(=O)C2CCCN(S(=O)(=O)c3cccc4cccnc34)C2)c1 (stereo unspecified) | inconclusive: 29.1 µM [cytotoxic, single point] | 
Cc1noc(C)c1COC(=O)c1cccnc1SCC(=O)Nc1ccc2c(c1)OCO2 | inconclusive: 23.1 µM [cytotoxic, single point] | 
O=C(O)c1sccc1SCc1ccc(Cl)cc1Cl | inconclusive: 3.66 µM [rising, full curve] | 

(cont.)

Structure (SMILES) | Potency | activity change, negative = cytotoxicity
O=C(c1cccc(S(=O)(=O)N2CCCC2)c1)N1CCN(c2ccccc2F)CC1 | active: 6.51 µM | 
COc1ccccc1-n1cc(C(=O)c2cc(Cl)ccc2O)cc(C#N)c1=O |  | inactive: -7.59%
COCCn1c(SCC(=O)Nc2ccccc2OC)nc2ccccc21 | inconclusive: 6.51 µM [cytotoxic, partial curve] | 
COc1ccc(NC(=O)c2c(Nc3ccccc3)sc(C(=O)c3ccc(F)cc3)c2N)cc1 | inconclusive: 2.06 µM [cytotoxic, partial curve, poor fit] | 
O=C(O)c1ccccc1N1C(=O)C2C3c4ccccc4C(Br)(c4ccccc43)C2C1=O (stereo unspecified) |  | inactive: -0.532%
Cc1ccc(O)c(-c2cc3ccccc3[nH]2)c1 |  | inactive: -23.5%
N#C/C(=C/c1ccc(N2CCCCCC2)o1)c1cccc(F)c1 | active: 14.6 µM | 
Cc1nn(-c2ccccc2)c(C)c1C(=O)NCCc1ccccc1 | inconclusive: 32.6 µM [cytotoxic, single point] | 
Cc1ccc2sc(N(CCCN(C)C)C(=O)c3ccc(S(=O)(=O)N4CCOCC4)cc3)nc2c1C |  | inactive: -17%
COCCNC(=O)C(c1ccc(C)cc1)N(Cc1ccco1)C(=O)CCC(=O)Nc1ccccn1 (stereo unspecified) |  | inactive: 0.369%
COc1ccc(C[C@H]2CN3C(=NC[C@@H]3Cc3ccccc3)N2CCNC(=O)c2ccc(C)c(Br)c2)cc1 | inconclusive: 29.1 µM [cytotoxic, single point] | 
O=Cc1c(NCc2ccccc2F)c2ccccc2[nH]c1=O | inconclusive: 29.1 µM [rising, single point] | 
Nc1c(C(=O)NCc2ccco2)c2nc3ccccc3nc2n1CCc1ccccc1 | inconclusive: 29.1 µM [cytotoxic, single point] | 
NC(=O)c1c(NC(=O)CN2CCN(S(=O)(=O)c3ccccc3)CC2)sc2c1CCC2 |  | inactive: 0.906%
COC(=O)c1c(C)[nH]c(C(=O)COC(=O)CCNS(=O)(=O)c2cccc(C(F)(F)F)c2)c1C | inconclusive: 23.1 µM [cytotoxic, single point] | 
COc1ccccc1NS(=O)(=O)c1cc(C(=O)N2CCN(C/C=C/c3ccccc3)CC2)ccc1C |  | inactive: -23.2%
COc1ccc2oc(C(=O)OCC(=O)N3CCN(S(=O)(=O)c4ccccc4)CC3)c(C)c2c1 | inconclusive: 20.6 µM [cytotoxic, single point] | 
O=C(O)c1ccc(F)c(S(=O)(=O)Nc2ccccc2Cl)c1 |  | inactive: 0%
Cc1nn(-c2ccccc2)c2sc(C(=O)Nc3cccc(Cl)c3)cc12 | inconclusive: 29.1 µM [cytotoxic, partial curve, poor fit] | 
CCc1ccccc1NC(=O)COc1ccc(C(=S)N2CCCC2)cc1 | inconclusive: 11.6 µM [cytotoxic, single point] | 
COc1ccc(CN2CC(=O)N(c3ccc(C)cc3)C2=S)cc1OC |  | inactive: -11.8%
COC(=O)c1ccc2c(=O)n(CCCCCC(=O)N3CCN(c4cc(C)ccc4C)CC3)c(=O)[nH]c2c1 |  | inactive: 0.784%
N=c1n(CC(=O)c2cccc([N+](=O)[O-])c2)c2ccccc2n1Cc1ccccc1 | inconclusive: 14.6 µM [cytotoxic, partial curve, poor fit] | 
